This experiment addresses Sec8 (endogenous, NMuMG) (mouse (endogenous in NMuMG)) (UniProt O35382). The experiment can be described thus: co-IP; endogenous proteins; Sec8 immunoprecipitated with anti-Sec8 (14/SEC8) from NMuMG cells, mouse IgG as control; also after silencing of Par3 or of aPKC; lysis in 0.1% Triton-X100, 20 mM HEPES pH 7.4, 50 mM NaCl, 2 mM EDTA.

The chains behind the UniProt entries cited, without tags or fusion partners.
UniProt O35382: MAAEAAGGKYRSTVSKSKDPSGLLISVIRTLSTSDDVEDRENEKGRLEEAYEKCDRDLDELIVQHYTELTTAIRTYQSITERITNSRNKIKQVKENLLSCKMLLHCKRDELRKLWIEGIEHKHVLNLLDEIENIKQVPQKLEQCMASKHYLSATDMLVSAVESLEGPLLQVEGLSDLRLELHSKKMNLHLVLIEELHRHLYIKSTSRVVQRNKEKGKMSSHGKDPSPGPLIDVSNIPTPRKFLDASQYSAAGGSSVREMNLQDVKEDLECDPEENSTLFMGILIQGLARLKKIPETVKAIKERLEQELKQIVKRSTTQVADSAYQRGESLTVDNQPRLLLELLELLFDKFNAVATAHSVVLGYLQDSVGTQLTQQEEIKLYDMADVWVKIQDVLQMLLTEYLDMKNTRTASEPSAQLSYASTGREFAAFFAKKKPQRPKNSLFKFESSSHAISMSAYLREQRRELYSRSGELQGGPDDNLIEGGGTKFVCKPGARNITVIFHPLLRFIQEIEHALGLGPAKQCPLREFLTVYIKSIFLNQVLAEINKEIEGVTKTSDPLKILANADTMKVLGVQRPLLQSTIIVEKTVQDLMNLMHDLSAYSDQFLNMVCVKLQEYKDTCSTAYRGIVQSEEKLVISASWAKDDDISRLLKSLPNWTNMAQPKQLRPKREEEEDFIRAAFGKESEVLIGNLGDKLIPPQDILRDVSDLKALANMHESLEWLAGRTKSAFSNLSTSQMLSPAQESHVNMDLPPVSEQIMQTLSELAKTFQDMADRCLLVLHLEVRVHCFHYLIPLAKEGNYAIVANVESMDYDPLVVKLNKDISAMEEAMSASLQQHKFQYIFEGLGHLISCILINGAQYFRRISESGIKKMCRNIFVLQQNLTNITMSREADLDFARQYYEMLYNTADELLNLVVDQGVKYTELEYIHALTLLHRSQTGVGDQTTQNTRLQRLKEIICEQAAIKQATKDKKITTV
UniProt Q99NH2: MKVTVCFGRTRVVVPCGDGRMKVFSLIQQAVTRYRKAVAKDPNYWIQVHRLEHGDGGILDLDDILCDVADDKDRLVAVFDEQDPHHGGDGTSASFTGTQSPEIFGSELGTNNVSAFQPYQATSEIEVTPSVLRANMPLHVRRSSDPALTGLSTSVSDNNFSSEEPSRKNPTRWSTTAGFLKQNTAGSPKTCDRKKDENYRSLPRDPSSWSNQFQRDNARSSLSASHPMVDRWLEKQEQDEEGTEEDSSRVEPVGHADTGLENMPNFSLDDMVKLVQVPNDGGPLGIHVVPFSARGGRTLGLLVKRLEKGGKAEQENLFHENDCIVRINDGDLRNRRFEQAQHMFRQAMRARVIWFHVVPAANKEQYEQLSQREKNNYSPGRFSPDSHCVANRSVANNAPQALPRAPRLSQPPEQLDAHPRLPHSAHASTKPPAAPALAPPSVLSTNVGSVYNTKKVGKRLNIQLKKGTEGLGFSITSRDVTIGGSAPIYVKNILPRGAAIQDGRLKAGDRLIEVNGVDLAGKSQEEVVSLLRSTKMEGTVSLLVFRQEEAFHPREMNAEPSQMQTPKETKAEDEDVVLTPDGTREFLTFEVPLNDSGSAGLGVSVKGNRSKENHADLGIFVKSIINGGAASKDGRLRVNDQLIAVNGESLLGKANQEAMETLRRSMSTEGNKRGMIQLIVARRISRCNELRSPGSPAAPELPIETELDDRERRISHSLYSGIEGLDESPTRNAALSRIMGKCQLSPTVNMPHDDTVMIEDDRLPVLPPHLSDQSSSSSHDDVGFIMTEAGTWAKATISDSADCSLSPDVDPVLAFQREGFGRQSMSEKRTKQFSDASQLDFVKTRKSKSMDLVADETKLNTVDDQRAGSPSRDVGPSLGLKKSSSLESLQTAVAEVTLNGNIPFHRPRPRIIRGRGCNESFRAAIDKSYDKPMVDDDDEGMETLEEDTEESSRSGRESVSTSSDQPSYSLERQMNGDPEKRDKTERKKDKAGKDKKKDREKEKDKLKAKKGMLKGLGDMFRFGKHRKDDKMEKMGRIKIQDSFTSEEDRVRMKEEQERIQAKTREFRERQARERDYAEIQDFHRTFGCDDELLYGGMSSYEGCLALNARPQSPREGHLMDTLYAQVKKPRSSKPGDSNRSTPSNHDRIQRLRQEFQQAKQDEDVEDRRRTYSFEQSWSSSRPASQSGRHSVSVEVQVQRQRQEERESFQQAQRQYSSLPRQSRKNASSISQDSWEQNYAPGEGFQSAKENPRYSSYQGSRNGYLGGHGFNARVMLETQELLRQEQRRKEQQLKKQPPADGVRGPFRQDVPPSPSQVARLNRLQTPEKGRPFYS

Results are given in words; binding and its absence hold for the method and conditions named. Binding seen in cells or lysates may run through a third protein. Some binding calls cover weakened binding; strength is not graded here.

The values below come from PMC5379108.

As for “Par3 (endogenous, NMuMG) (from UniProt Q99NH2 1-1333)”, the binding result was “binds”.
